Among the data in paper PMC2504488 are binding values, retold here.

Chains of the proteins cited; added tags and fusions are not shown.
UniProt O22467: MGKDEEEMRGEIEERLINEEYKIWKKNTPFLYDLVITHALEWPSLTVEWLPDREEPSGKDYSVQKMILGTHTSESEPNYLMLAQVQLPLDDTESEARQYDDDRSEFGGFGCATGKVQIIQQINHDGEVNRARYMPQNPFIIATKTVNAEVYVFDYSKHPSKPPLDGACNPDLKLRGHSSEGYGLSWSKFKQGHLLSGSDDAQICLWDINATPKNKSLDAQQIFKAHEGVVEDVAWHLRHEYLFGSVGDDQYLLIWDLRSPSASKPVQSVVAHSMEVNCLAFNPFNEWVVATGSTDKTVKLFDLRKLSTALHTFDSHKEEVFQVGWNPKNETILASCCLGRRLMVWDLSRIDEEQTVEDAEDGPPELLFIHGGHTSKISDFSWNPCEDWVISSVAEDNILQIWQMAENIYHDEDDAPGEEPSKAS

These are yes or no findings as the source states them, for the method shown. In cells and extracts the contact can be indirect. Some binding calls cover weakened binding; strength is not graded here. For some assays here: Tags and fused reporters may be left off the sequences shown.

Assay [1] addresses GST-MSI1 fusion protein (Arabidopsis MULTICOPYSUPPRESSOR OF IRA1) (Arabidopsis) (UniProt O22467). The assay is described as follows: pull-down; GST-MSI1 immobilized on glutathione agarose beads, incubated with [35S]methionine-labeled RBR1 from reticulocyte lysate; six washes with NETN buffer (100 mM NaCl, 1 mM EDTA, 20 mM Tris pH 8.0, 0.5% NP-40); autoradiography; only the target purified.

Assay [2] has as its target YN-MSI1 (MSI1 fused to the N-terminal part of YFP) (Arabidopsis) (UniProt O22467). The assay is described as follows: split reporter; BiFC with YN and YC fusions transiently coexpressed in N. benthamiana leaf epidermis; 25 °C for 24 h; confocal microscopy of YFP.

B1: RBR1 (RETINOBLASTOMA RELATED 1), full-length, labeled with [35S] methionine (protein, UniProt Q9LKZ3 1-1013)
chain: MEEVQPPVTPPIEPNGKRSEASLLDICEKVLSLDGSTCDEALKLFTETKRILSASMSNIGSGTREEVERFWFAFILYSVKRLSVRKEADGLSVSGDNEFNLCQILRALKLNIVDFFKELPQFVVKAGSVLGELYGADWENRLQAKEVQANFVHLSLLSKYYKRGFREFFLTYDANAEKNSANSSTYLLDSYRFGWLLFLALRNHAFSRFKDLVTCSNGVVSILAILIIHVPCRFRNFSIQDSSRFVKKGDKGVDLVASLCKIYDASEDELRIVIDKANNLVETILKKKPSPASECQTDKLDNIDPDGLTYFEDLLEETSISTSLITLEKDYYDGKGELDERVFINEEDSLLGSGSLSAGAVNITGVKRKIDALSSPARTFISPLSPHKSPAAKTNGISGATKLAATPVSTAMTTAKWLRTVISPLLPKPSPGLEHFLKSCDRDITNDVTRRAHIILEAIFPNSSLGAQCGGGSLQAVDLMDDIWAEQRRLEACKLYYRVLEAMCKAEAQILHANNLNSLLTNERFHRCMLACSAELVLATHKTITMLFPAVLERTGITAFDLSKVIESFIRHEDSLPRELRRHLNSLEERLLESMVWEKGSSMYNSLIVARPSLALEINQLGLLAEPMPSLDAIAALINFSDGANHASSVQKHETCPGQNGGIRSPKRLCTDYRSILVERNSFTSPVKDRLLALGNVKSKMLPPPLQSAFASPTRPNPGGGGETCAETGINIFFTKINKLAAVRINGMVERLQLSQQIRESVYCFFQHVLAQRTSLLFSRHIDQIILCCFYGVAKISQMSLTFREIIYNYRKQPQCKPLVFRSVYVDALQCRRQGRIGPDHVDIITFYNEIFIPAVKPLLVELGPVRNDRAVEANNKPEGQCPGSPKVSVFPSVPDMSPKKVSAVHNVYVSPLRGSKMDALISHSTKSYYACVGESTHAYQSPSKDLSAINNRLNNSSSNRKRTLNFDAEAGMVSDSMVANSLNLQNQNQNQNGSDASSSGGAAPLKTEPTDS
modifications: [35S] methionine label
For the molecule B1, in assay [1], the binding entry is “binds”.

B2: YC-RBR1 (RBR1 fused to the C-terminal part of YFP) (protein, UniProt Q9LKZ3 1-1013)
chain: MEEVQPPVTPPIEPNGKRSEASLLDICEKVLSLDGSTCDEALKLFTETKRILSASMSNIGSGTREEVERFWFAFILYSVKRLSVRKEADGLSVSGDNEFNLCQILRALKLNIVDFFKELPQFVVKAGSVLGELYGADWENRLQAKEVQANFVHLSLLSKYYKRGFREFFLTYDANAEKNSANSSTYLLDSYRFGWLLFLALRNHAFSRFKDLVTCSNGVVSILAILIIHVPCRFRNFSIQDSSRFVKKGDKGVDLVASLCKIYDASEDELRIVIDKANNLVETILKKKPSPASECQTDKLDNIDPDGLTYFEDLLEETSISTSLITLEKDYYDGKGELDERVFINEEDSLLGSGSLSAGAVNITGVKRKIDALSSPARTFISPLSPHKSPAAKTNGISGATKLAATPVSTAMTTAKWLRTVISPLLPKPSPGLEHFLKSCDRDITNDVTRRAHIILEAIFPNSSLGAQCGGGSLQAVDLMDDIWAEQRRLEACKLYYRVLEAMCKAEAQILHANNLNSLLTNERFHRCMLACSAELVLATHKTITMLFPAVLERTGITAFDLSKVIESFIRHEDSLPRELRRHLNSLEERLLESMVWEKGSSMYNSLIVARPSLALEINQLGLLAEPMPSLDAIAALINFSDGANHASSVQKHETCPGQNGGIRSPKRLCTDYRSILVERNSFTSPVKDRLLALGNVKSKMLPPPLQSAFASPTRPNPGGGGETCAETGINIFFTKINKLAAVRINGMVERLQLSQQIRESVYCFFQHVLAQRTSLLFSRHIDQIILCCFYGVAKISQMSLTFREIIYNYRKQPQCKPLVFRSVYVDALQCRRQGRIGPDHVDIITFYNEIFIPAVKPLLVELGPVRNDRAVEANNKPEGQCPGSPKVSVFPSVPDMSPKKVSAVHNVYVSPLRGSKMDALISHSTKSYYACVGESTHAYQSPSKDLSAINNRLNNSSSNRKRTLNFDAEAGMVSDSMVANSLNLQNQNQNQNGSDASSSGGAAPLKTEPTDS
For B2, the binding result in assay [2] was “binds”.
